Assay results published in US20130039928A1, “COMPOSITIONS AND METHODS FOR REVERSING CORTICOSTEROID RESISTANCE OR TREATING RESPIRATORY INFECTIONS” (priority 2010, published 2013).
At least one compound was matched to its structure with a doubt left.

Tested on: IL-8
Experiment: Corticosteroid responsiveness: basal and LPS-induced IL-8 secretion by alveolar macrophages
Format: cell-based, human
Conditions: dexamethasone alone (1 μM), COPD alveolar macrophages
Procedure: For inducing corticosteroid resistance, PMs were exposed to cigarette smoke condensate (CSC, 100 μg/ml; Murty Pharmaceuticals, Lexington, Ky.) for 16 h. Exposure to S-nitrosoglutathione (GSNO, 10 μM) was limited to 4 h. […] For assessing corticosteroid responsiveness, macrophages were incubated with dexamethasone (1 μM, Sigma) for 1 h followed by LPS (100 ng/ml, Sigma) for additional 4 h.
For human IL-8 and mouse IL-6 and MCP-1 proteins, Quantikine ELISA kits from R&D systems (Minneapolis, Minn.) were used according to the manufacturer's instructions.

C[C@@H]1C[C@H]2[C@@H]3CCC4=CC(=O)C=C[C@]4(C)[C@@]3(F)[C@@H](O)C[C@]2(C)[C@@]1(O)C(=O)CO [dexamethasone]
LPS-induced IL-8 secretion: failed to suppress LPS-induced IL-8 secretion
